In patent US10624880B2, “Predicting response to alvocidib by mitochondrial profiling” (Tolero Pharmaceuticals, Inc., priority 2015, dated 2020):

Test system: MV-4-11 cells
Assay: 24 hour EC50 in MV-4-11 cells
Format: cell-based
Conditions: Homo sapiens, MV4-11, read-out: 24 hour EC 50
Excerpt: Following the treatment, cells were harvested and prepared using standard immunoblotting techniques for detection of MCL-1.

EC50: 50 nM
Compound: CCc1cnn2c(NCc3ccc[n+]([O-])c3)cc(N3CCCC[C@H]3CCO)nc12 [dinaciclib]
